Experimental data taken from patent US20250110133A1, “METHOD AND KIT FOR PREDICTING DRUG EFFICACY OF LUNG CANCER TREATMENT AND METHOD FOR TREATING LUNG CANCER” (National Health Research Institutes, priority 2023, published 2025).
No constants are given. Whether binding was seen depends on the method and setting. Some binding calls cover weakened binding; strength is not graded here. For some assays here: Sequences can lack the tags named with a protein.

Protein sequences, listed by entry. Tags and fused reporters are not part of them. Lines headed by an entry give the natural chain unless they say otherwise; changes in a name come on top. Chains listed by the source or under a name are the forms on record and can include a tag or linker.
FLAG-tagged human AP2M1 (Q96CW1, form named): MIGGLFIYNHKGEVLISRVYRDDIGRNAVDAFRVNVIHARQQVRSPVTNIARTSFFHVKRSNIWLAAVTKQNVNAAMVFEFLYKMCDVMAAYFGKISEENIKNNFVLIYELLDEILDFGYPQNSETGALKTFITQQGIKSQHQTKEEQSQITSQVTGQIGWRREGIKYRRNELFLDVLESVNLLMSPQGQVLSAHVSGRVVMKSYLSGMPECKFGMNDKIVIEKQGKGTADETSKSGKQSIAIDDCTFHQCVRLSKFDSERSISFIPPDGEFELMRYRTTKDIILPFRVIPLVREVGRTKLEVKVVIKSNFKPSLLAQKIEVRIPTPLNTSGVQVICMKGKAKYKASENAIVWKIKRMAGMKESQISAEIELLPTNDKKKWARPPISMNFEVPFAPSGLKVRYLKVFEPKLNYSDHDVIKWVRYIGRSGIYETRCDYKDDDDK
UniProt O95751: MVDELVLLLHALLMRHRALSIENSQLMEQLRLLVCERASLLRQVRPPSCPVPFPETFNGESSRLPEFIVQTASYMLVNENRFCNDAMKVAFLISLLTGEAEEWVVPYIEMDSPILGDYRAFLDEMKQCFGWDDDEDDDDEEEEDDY

What was measured:
[1] = biological target: T1, FLAG-tagged human AP1M1 (human) (UniProt Q9BXS5); assay: double immunofluorescence colocalisation, confocal microscopy, co-transfected U2OS cells
T1 sequence: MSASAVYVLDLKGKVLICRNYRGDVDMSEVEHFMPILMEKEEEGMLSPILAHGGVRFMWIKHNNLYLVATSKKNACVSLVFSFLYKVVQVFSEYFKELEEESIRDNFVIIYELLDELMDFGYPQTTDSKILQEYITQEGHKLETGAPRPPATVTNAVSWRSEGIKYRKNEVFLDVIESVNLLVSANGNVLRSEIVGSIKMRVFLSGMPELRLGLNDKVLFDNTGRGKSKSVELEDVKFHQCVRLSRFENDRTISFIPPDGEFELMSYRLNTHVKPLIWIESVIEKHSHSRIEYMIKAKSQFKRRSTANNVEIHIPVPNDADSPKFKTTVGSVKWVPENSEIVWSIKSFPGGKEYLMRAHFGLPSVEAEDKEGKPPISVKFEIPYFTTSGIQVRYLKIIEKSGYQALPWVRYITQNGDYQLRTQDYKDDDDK

[2] = biological target: FLAG-tagged human AP2M1 (human) (UniProt Q96CW1); assay: as above

For “V5-tagged human LDOC1 (from UniProt O95751 1-146)”, the binding [1] was “binds” and the binding [2] was “binds”.
